According to article doi:10.1101/2025.05.28.656585:
Where two headings read alike, the source gives them in different places. No constants are given. Whether binding was seen depends on the method and setting. Binding seen in cells or lysates may run through a third protein. A result given as binding can be weak or reduced; the word gives no strength. For some of these results: Tags and fused reporters may be left off the sequences shown.

By UniProt entry, the sequences of proteins in these tests, tags left out. Where a name states a change or a piece, a line headed by the entry shows the natural chain unless it says otherwise.
UniProt O18333: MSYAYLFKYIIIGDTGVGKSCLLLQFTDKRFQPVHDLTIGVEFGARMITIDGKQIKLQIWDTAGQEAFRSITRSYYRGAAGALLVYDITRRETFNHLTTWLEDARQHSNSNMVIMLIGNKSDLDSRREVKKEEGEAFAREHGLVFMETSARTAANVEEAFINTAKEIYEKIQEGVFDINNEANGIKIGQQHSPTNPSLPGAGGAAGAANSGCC

B1: myc-tagged full length Sunday Driver (Syd/dJIP3/4) (protein, UniProt Q9GQF1 1-1227)
chain: MMDNDDALLNNGGPQSGAETVYGTEDNNMVMSEKNEQVVSIVQQLAGSIYQEFERMINRYDEDVVKNLMPLLVNVLECLDASYRINQEQDVEVELLREDNEQLVTQYEREKSARKQSEQKLLEAEDLAEQENKELATRLESVESIVRMLELKHKNSLEHASRLEEREADLKKEYNKLHERYTELFKNHVDYMERTKMLMGSTHSQMSTASERMDVSRARLNPVARSSGPVSYGFASLENSVMLDTETICSVGSQSDDSGPPSLQNELDNLSGTLERGAATDALQQQHHATSPQSPDSSPVVPNVPTNVGRSTTKKEQRSDNNLYQELSFQDNEESEENEIVTGSWVHPGEYASSANDNYFGMGKEVENLIMENNELLATKNALNIVKDDLIVKVDELTGEVEIVREELNAMQQSRTKLRQRISELEDELKKAKEQVKQQNTEQEENDVPLAQRKRFTRVEMAMVLMERNQYKERLMELQEAVRLTEILRASRTVDNLDRKSKQSIWKYFSNLFTPSNRPTERVADGLGGGPMFRHTGGGSPAHSHGSPSRGSGGGDNRLALTSGQPPVHPASAGLANALIMPKDYAEEGSSERISARRREQYRQLRAHVQKEDGRLHAYGWSLPINKASQEANPNRHSGGVPVPVYCNPLAEASPHMKVFCAAGVNLHGGFTKNGQSLIPANSPYAPKSTLKIAEITSPTADQSMEALDRQMARVSLETLEPETQLSSFVWICTSTHAASTVSVVDANQSATVLDAFPICASHLLCIASVQGAMESDYALLEQSEVVKAGEMLQRPGEGTELLGKVEFVRVKPKSDDEQNSNEKQQQEEEEAKEATEKSNEQLPAVSAEEPLGNVEAIKIRQPLPGAPQRLSTDGNQTNNNNNSSSSSNLLFATKSLNPILETKDRDEPAMSSVGPTMWLGAQDGWLYVHSSVGRWHECLHRVLLPDAVLAIVHVEARVVVALANAQLAVFRRQTDGQWDLNSYHLVTLGDRNHSIRCLCVAGERIWAAHRNKIFIVDPVSLNIVHSLDAHPRKESQVRQMAATGAGVWVSIRLDSTLRLYNTHTFEHKQDVDIEPYVSKMLGTGKLGFSFVRITALMVSCNRLWIGTSNGVIISVPLAEVQPKSSSDPHGQMPLCCMANAQLSFHGHRDAVKFFVSVPMLQQPNLNGGLTFTNKRPDMLVMCGGEGYIDFRINDNDMENSIQLEPNQTIENRGDKSYLIVWHVSQR
B2: V5-tagged Arl8 (protein, UniProt Q9VHV5 1-186)
chain: MLALINRILEWFKSIFWKEEMELTLVGLQFSGKTTFVNVIASGQFAEDMIPTVGFNMRKITRGNVTIKVWDIGGQPRFRSMWERYCRGVNAIVYMVDAADLDKLEASRNELHSLLDKPQLAGIPVLVLGNKRDLPGALDETGLIERMNLSSIQDREICCYSISCKEKDNIDITLQWLIQHSKSQSR

Assays:
Experiment in all cases: co-IP
[1] = molecular target: myc-tagged RUFY (RUFY1/CG31064) (Drosophila)
[2] = molecular target: HA-tagged RUFY (RUFY1/CG31064) (Drosophila)
[3] = molecular target: HA-tagged RUFY (RUFY1/CG31064) (Drosophila); remark: listed apart in the source

| Molecule | binding [3] | also measured |
| --- | --- | --- |
| HA-tagged GTP-locked, constitutively active Rab2 Q65L (from UniProt O18333 1-213) |  | binding [1]: binds weakly |
| myc-tagged Rab2 Q65L (from UniProt O18333 1-213) |  | binding [2]: binds |
| B1 | binds |  |
| B2 | binds |  |
